Measurements reported in PubChem BioAssay AID1671195 (Yale University, 2021).
The whole screen tested about 22,000 reagents; shown is a part drawn at random. About 1,510 of them (6.9%) were called active. 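Active includes knockdowns raising or lowering LDL uptake; positive z-scores mean more uptake, negative mean less.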 Entries without a mark were called inactive.

Screen: 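Regulators of LDL receptor activity judged by labelled LDL uptake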 (primary screen)
Cell system: human Huh7 hepatoma cells
Reagent: siRNA pool against human genes, 18 nM
Timing: about 2 to 2.5 days of knockdown, then 8 h LDL uptake
Conditions: DiI-labelled LDL at 30 µg/ml for 8 h, in lipoprotein-deficient serum medium
Measurement: 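Fluorescent LDL signal imaged in cells, scaled to the plate median, robust z-score for each replicate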
Scale: robust z-score: higher = more LDL uptake after knockdown
Call rule: 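Active when two or more replicates show a robust z-score above 2 or below -2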

target gene	robust z-score, replicate 1	robust z-score, replicate 2	robust z-score, replicate 3
LOC151256 (retired record)	3.33 (active)	2.22	2.41
LOC440144 (retired record)	-0.594	-0.906	-1.05
SLCO5A1	-0.572	-1.54	-0.926
SLC2A1-DT	-0.867	-0.553	-0.575
BOP1	0.221	-2.18	-0.145
TFEB	-0.548	-0.724	-0.698
ASB10	0.00219	-0.251	0.373
LOC440516 (retired record)	-0.226	-0.136	-0.287
UTP15	-1.15	-1.13	-1.41
MRPL9	0.619	0.197	-0.0779
LINGO1	-1.2	-1.41	-1.26
RPS25	0.383	1.01	0.258
MEGF8	-1.56	-1.16	-0.768
PGCKA1	-0.712	0.311	-0.858
EPB41	-1.3	-0.562	-1.39
LOC153134 (retired record)	0.18	0.807	0.184
MID2	0.584	-0.62	-0.353
ADGB	0.42	0.494	0.501
LAX1	1.45	1.71	1.38
PPM1F	0.248	0.156	0.214
GRIP1	-0.602	0.735	-0.667
CT47A11	-0.634	-0.7	-0.658
MFSD6	1.45	1.08	-1.59
ANKRD7	-1.82	-1.46	-1.9
ZNF692	-0.551	-0.494	0.196
CYLD	1.36	-0.597	0.572
MGAM	0.601	1.42	1.52
FEZF1	0.827	0.947	0.55
GRHL3	-0.118	-1.01	-0.206
KIF13A	0.514	0.684	0.525
FOXD1	0.895	-0.326	1.47
CDCA4	0.036	-1.44	0.59
GPR152	0.142	-0.245	0.144
FCRL6	1.77	1.56	1.23
MSRB2	-1.71	-1.65	-1.54
RNF24	-0.167	0.391	0.532
SPA17	-0.391	-1.29	-0.272
STK11IP	0.654	1.38	2.31
NIBAN1	-0.379	1.57	0.982
PQBP1	-0.578	-0.577	-0.173
RFWD3	0.0641	0.157	1.5
SF3B6	-1.24	0.775	-0.118
ARL15	1.03	0.356	0.336
NCR2	1.46	0.248	0.933
NSG1	0.0551	0.165	0.559
UBE2E3	-0.00154	-1.07	-0.701
ACTL6A	-1.2	-0.944	-0.0511
TRMT61A	-2.37 (active)	-1.52	-1.9
RIF1	-0.102	0.448	1.51
CHAF1A	-0.757	-1.76	-1.31
LOC387846 (retired record)	1.11	0.651	0.599
CDK5R2	-0.181	0.0434	2.37
RPS23P2	0.642	-0.416	-0.376
TJP3	-0.803	-1.01	-0.621
SYCE2	0.947	0.831	1.02
ACP1	-1.85	-1.84	-1.74
RFTN2	-1.92 (active)	-2.83	-2.1
TAS2R38	-0.268	-0.992	0.379
LOC389892 (retired record)	1.95 (active)	2.61	2.51
JPH4	0.459	-0.383	-0.465
WDR13	1.09	1.42	0.809
SOS2	0.546	-0.0629	1.1
STX12	2.97 (active)	3.58	6.61
SYT1	6.86 (active)	6.11	7.06
SORT1	0.101	-0.299	-0.371
LOC388340 (retired record)	1.35	1.62	1.76
DUSP3	0.222	0.377	0.843
WNT5A	-0.445	1.15	-0.97
PRDX5	-0.798	-0.71	-0.887
LOC440510 (retired record)	-0.499	-0.938	-0.451
YIPF2	0.126	-0.825	-0.433
XKR7	1	1.1	1.2
ST3GAL5	-0.728	-0.393	-0.492
PDP2	-0.0458	0.488	-0.148
TRIM61	-1.18	0.213	0.0792
DUSP1	0.122	0.259	0.164
ANXA3	2.6	1.2	1.65
OR10H4	3.18	1.34	1.65
ZNF398	0.574	0.902	0.899
CFAP20	0.535	-0.909	0.104
CWC22	1.09	0.624	-0.72
C6orf15	-1.39	1.53	-0.68
TNFRSF10B	1.21	1.29	1.36
PABPC5	1.28	0.534	0.669
LOC389659 (retired record)	-0.0578	-0.0257	0.373
ACO1	-0.231	-0.176	0.162
SMS	1.08	1.96	1.4

Active calls (from the list above):
target gene	robust z-score, replicate 1	robust z-score, replicate 2	robust z-score, replicate 3
LOC151256 (retired record)	3.33 (active)	2.22	2.41
TRMT61A	-2.37 (active)	-1.52	-1.9
RFTN2	-1.92 (active)	-2.83	-2.1
LOC389892 (retired record)	1.95 (active)	2.61	2.51
STX12	2.97 (active)	3.58	6.61
SYT1	6.86 (active)	6.11	7.06
